Values of other authors, collected in patent US9974832B2, “Therapeutic effects of bryostatins, bryologs, and other related substances on head trauma-induced memory impairment and brain injury” (Cognitive Research Enterprises, Inc., priority 2007, dated 2018).
At least one compound was matched to its structure with a doubt left.

System: PKC
Conditions: cited from earlier work

CC(C)=CCC/C(C)=C/CC/C(C)=C/CSc1nc[nH]n1 [Farnesyl thiotriazole]
potency compared with dioleoylglycerol: equipotent with dioleoylglycerol
